Test results reported in patent US20220088040A1, “Use of System XC-Inhibitor for Treating Statin-Induced Myalgia” (Exerkine Corporation, priority 2017, published 2022).

Assays:
C2C12 myotubes = assay: Glutamate efflux from C2C12 myotubes (Amplex Red glutamic acid assay of culture media); assay type: cell-based, murine; details: atorvastatin alone
primary human myoblasts = details: statin (atorvastatin 5 μM) alone (FIG. 3A)

## CC(C)c1c(C(=O)Nc2ccccc2)c(-c2ccccc2)c(-c2ccc(F)cc2)n1CC[C@@H](O)C[C@@H](O)CC(=O)O [atorvastatin]
C2C12 myotubes; 6 h (FIG. 2)
  glutamate efflux: substantial increase
C2C12 myotubes; 12 h, 18 h and 24 h (FIG. 2)
  glutamate efflux: maintained
Primary human myoblasts
  glutamate efflux: increased
